No constants are given. Whether binding was seen depends on the method and setting. Some results given as binding are weak or reduced against the parent protein; the word gives no strength.
Target: T1, mouse OX40 (mouse) (UniProt P47741)
T1 sequence (looked up): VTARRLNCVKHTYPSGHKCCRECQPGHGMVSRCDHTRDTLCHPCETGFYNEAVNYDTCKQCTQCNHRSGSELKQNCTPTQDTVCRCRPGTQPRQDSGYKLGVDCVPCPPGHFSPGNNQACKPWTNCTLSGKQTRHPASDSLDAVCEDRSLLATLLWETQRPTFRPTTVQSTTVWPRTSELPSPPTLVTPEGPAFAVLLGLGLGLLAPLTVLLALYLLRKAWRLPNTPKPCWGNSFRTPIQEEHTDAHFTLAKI
Assay: flow cytometry on 293T cells expressing mouse OX40, MFI against protein concentration

Sequences of proteins named here, by UniProt entry; tags and fusion partners are left off. A change or cut given only in a name is not applied to a line headed by its entry.
UniProt P43488: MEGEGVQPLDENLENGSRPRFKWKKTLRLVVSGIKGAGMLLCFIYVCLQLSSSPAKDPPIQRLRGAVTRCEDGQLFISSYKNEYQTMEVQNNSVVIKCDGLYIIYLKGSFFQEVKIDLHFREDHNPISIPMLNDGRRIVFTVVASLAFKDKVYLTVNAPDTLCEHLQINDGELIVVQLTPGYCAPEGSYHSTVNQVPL

Question: Which binding does the source give for “hFcγ1•OX40L (T) (from UniProt P43488 49-198) (Fc fusion)” here?
Answer: The binding was “binds”.

Source: patent US20160347846A1
